Measured values: PubChem BioAssay AID493014 (National Center for Advancing Translational Sciences (NCATS), 2011)
Some of the results follow. These are further read-outs of the screen, such as a control signal, another cell line or another target. No call is given for them. The list favours compounds with an active or inconclusive main result. Words in brackets tell the shape of the fitted curve; partial curves, single points and poor fits give uncertain potencies.

Test: qHTS Assay to Find Inhibitors of Chronic Active B-Cell Receptor Signaling
Details: ABC-DLBCL IkBa-CBG/CBR reporter, luminescence ratio (green luciferase fused to IkBa over red control in TMD8 lymphoma cells), 4 h
Outline: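 Compounds up to 46 uM were incubated four hours with TMD8 cells whose green CBG68 luciferase is fused to IkappaBalpha; red CBR luminescence normalised the signal, and concentration-effect curves were fitted to fusion, red and ratio data.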

[1] = measured here: CBR red luminescence, cell number
[2] = measured here: IkBa-CBG green luminescence

| Compound | AC50 [1] | AC50 [2] |
| --- | --- | --- |
| O=C(/C=C/c1cn(CC(O)CN2CCCCC2)c2ccccc12)c1ccccc1 (stereo unspecified) | 10 µM [falling, partial curve, poor fit] |  |
| CCOC(=O)N1CCC(NC(=O)Cn2ncc3ccccc32)CC1 | 2.59 µM [rising, single point] |  |
| CCC(CO)Oc1cc(NCc2ccc(O)cc2)c2ncn(C(C)C)c2c1 (stereo unspecified) | 0.291 µM [rising, full curve, poor fit] |  |
| COc1ccc(Cl)cc1NC(=O)CN(C)C(=O)Cc1ccc(-c2ccccc2)cc1 | 29.1 µM [falling, single point] |  |
| Cc1cccc(C(=O)N/N=C/c2ccccn2)c1 | 16.4 µM [falling, single point] |  |
| CCCCCNc1nc(NCCCO)c(C#N)c2c1CN(C)CC2 | 9.2 µM [rising, partial curve, poor fit] |  |
| Cc1nc(-c2ccccc2)sc1-c1ccn[nH]1 | 12.6 µM [falling, single point] |  |
| CCOC(=O)CCSc1nc(C)c2cc(C)ccc2n1 | 0.291 µM [rising, full curve, poor fit] |  |
| Cn1cc(/C=C/c2cc[n+](C)cc2)c2cc(Cl)ccc21 | 0.631 µM [falling, full curve, poor fit] |  |
| Cc1ccc(S(=O)(=O)Nc2ccc(NC(=O)Nc3cccc(C(F)(F)F)c3)cc2)cc1 | 16.4 µM [falling, partial curve, poor fit] |  |
| COCC(=O)Nc1ccc(C(=O)Nc2ccccc2Cl)cc1 | 10 µM [falling, partial curve, poor fit] |  |
| CCN(CC)c1ccc(/C=N\NC(=O)c2cccc3cc[nH]c23)cc1 | 35.5 µM [falling, partial curve, poor fit] | 20 µM [falling, single point] |
| Cn1c(=O)c2c(nc(Oc3cccc(O)c3)n2C)n(C)c1=O | 1.26 µM [falling, partial curve, poor fit] |  |
| Clc1ccc(-c2nnc3n2-c2ccccc2SC3)cc1 | 35.5 µM [falling, single point] |  |
| Cc1ccccc1-n1c(-c2csc(C)c2C)n[nH]c1=S | 23.1 µM [falling, partial curve, poor fit] |  |
| CCN1CCN(C(=O)c2cc3cc(Cl)ccc3[nH]2)CC1 | 31.6 µM [falling, single point] |  |
| COC(=O)c1c(-c2ccco2)csc1NC(=O)C1CC=CCC1C(=O)O (stereo unspecified) | 0.501 µM [falling, partial curve, poor fit] |  |
| CC(C)Cc1nc2oc3c(NCC4CCCO4)ncnc3c2c2c1CCC2 (stereo unspecified) | 1.41 µM [rising, full curve, poor fit] |  |
| Cc1cccc(C(=O)NCC(c2ccco2)N(C)C)c1 (stereo unspecified) | 35.5 µM [rising, partial curve, poor fit] |  |
| CCc1nn2c(=O)cc(CSc3nc(C)cc(=O)[nH]3)nc2s1 | 1.46 µM [rising, partial curve, poor fit] |  |
| COCCn1c(SCC(=O)Nc2ccc(S(=O)(=O)N3CCOCC3)cc2)nc2ccccc21 | 15.8 µM [falling, single point] |  |

| Compound | AC50 [1] | AC50 [2] |
| --- | --- | --- |
| Cc1ccc(-c2cc(-c3ccccc3C)[nH]n2)c(O)c1 | 29.1 µM [falling, single point] | 18.4 µM [rising, partial curve, poor fit] |
| Cc1nc2ccccc2c(N)c1C(=O)/C=C/c1ccccc1 | 8.91 µM [falling, partial curve, poor fit] |  |
| CCOC(=O)N1C(=O)C2(CCCCC2)N(c2ccccc2Cl)C1=S | 29.1 µM [falling, single point] |  |
| C=CCn1c(CNC(=O)c2ccco2)nnc1SCC(=O)c1ccc(F)cc1 | 12.6 µM [falling, partial curve, poor fit] |  |
| CNC(=O)COC(=O)c1c2c(nc3ccccc13)CCC2 | 3.55 µM [falling, partial curve, poor fit] | 5.62 µM [rising, full curve, poor fit] |
| O=C(N/N=C/c1c[nH]c2ccccc12)C1COc2ccccc2O1 (stereo unspecified) | 23.1 µM [rising, partial curve, poor fit] |  |
| N#CC(C(=O)Nc1ccccc1)=C1Nc2ccccc2N1 | 16.4 µM [falling, single point] |  |
| CCOc1ccc2nc(SCC3CC3(Cl)Cl)[nH]c2c1 (stereo unspecified) | 3.16 µM [rising, partial curve, poor fit] |  |
| COc1ccc(N2CCN(C(=O)c3ccc4c(c3)N(Cc3cccc(Cl)c3)C(=O)c3ccccc3S4(=O)=O)CC2)cc1 | 3.16 µM [rising, full curve] |  |
| CCc1cc(C(=O)OC)c(N2C(=O)C3C4C=CC(C4)C3C2=O)s1 (stereo unspecified) | 18.4 µM [rising, single point] |  |
| CCOC(=O)N1CCN(C(=O)Cc2cccc3ccccc23)CC1 | 6.31 µM [rising, single point] |  |
| Cc1ccc(NC(=O)c2ccn(C)n2)c(Br)c1 | 9.2 µM [rising, partial curve, poor fit] |  |
| CCCN(CCC)CCNC(=O)C(NS(=O)(=O)c1ccc2c(c1)CCC(=O)N2)c1ccccc1 (stereo unspecified) | 3.66 µM [rising, single point] |  |
| Cc1ccnn1-c1ccc(C(=O)OCC(=O)Nc2ccc(F)cc2)cc1 | 29.1 µM [rising, single point] |  |
| Cc1ccc(OS(=O)(=O)c2c(C)nn(C)c2Cl)c(C)c1 | 14.1 µM [rising, partial curve, poor fit] |  |
| C/C=C/c1ccccc1OCc1ccc(C(=O)O)o1 | 29.1 µM [falling, single point] |  |
| CN1C(=O)/C(=C/c2ccccc2OCc2cccc(F)c2)N(C)C1=S | 20.6 µM [falling, partial curve, poor fit] |  |
| COc1ccc(OCCOC(=O)c2ccc(F)c(S(=O)(=O)N3CCOCC3)c2)cc1 | 0.58 µM [rising, full curve, poor fit] |  |
| NC(=O)c1ccc(Nc2nnc(-c3ccc(O)cc3)c3ccccc23)cc1 | 11.2 µM [falling, partial curve] |  |
| COc1ccc(/C=N/NC(=O)c2ccccc2Cl)cc1CSc1nc2ccccc2s1 | 11.6 µM [falling, partial curve] |  |
| CCC1CCCN1Cn1cnc2c([nH]c3ccccc32)c1=O (stereo unspecified) | 2.51 µM [falling, partial curve, poor fit] |  |

| Compound | AC50 [1] | AC50 [2] |
| --- | --- | --- |
| CCCCc1ccc(-c2nc(NC(=O)C3C4CCC(O4)C3C(=O)O)sc2C)cc1 (stereo unspecified) | 11.2 µM [rising, partial curve] |  |
| Cc1ccc(-n2nc(C)c3c2OC(N)=C(C#N)C3c2ccc(C)o2)cc1 (stereo unspecified) | 18.4 µM [falling, partial curve, poor fit] |  |
| COc1cc(SC)ccc1C(=O)OCC(=O)NCCNC(=O)COC(=O)c1ccc(SC)cc1OC | 3.16 µM [falling, full curve] |  |
| Cc1cccc(-c2noc(CCC(=O)NCc3ccco3)n2)c1 | 20.6 µM [rising, single point] |  |
| O=C(Oc1c(CN2CCOCC2)cc(Cl)c2cccnc12)c1ccccc1Br | 2 µM [rising, full curve, poor fit] | 2 µM [falling, partial curve, poor fit] |
| Cc1c(/C=N/Nc2ccc([N+](=O)[O-])cn2)c2ccccc2n1Cc1ccccc1 | 10 µM [rising, partial curve, poor fit] |  |
| CCn1c(SCC(=O)c2c[nH]c3ccccc23)nc2cc(S(=O)(=O)N3CCOCC3)ccc21 | 18.4 µM [falling, single point] |  |
| O=C(CCCN1C(=O)/C(=C/c2ccccc2)SC1=S)Nc1ccccc1O | 5.01 µM [falling, partial curve, poor fit] |  |
| CC1=NN(c2ccccc2)C(=O)/C1=C/c1c(O)n(-c2ccc(F)c(Cl)c2)[nH]c1=O | 16.4 µM [falling, single point] |  |
| CN1CCN(C(=O)c2cc3c(s2)-c2ccccc2S(=O)(=O)C3)CC1 | 3.26 µM [falling, single point] |  |
| Cc1cc(NC(C)c2ccccc2)n2ncc(-c3ccccc3)c2n1 (stereo unspecified) | 7.94 µM [falling, single point] |  |
| CN(C)S(=O)(=O)c1ccc(NC(=O)N2CCN(c3cccc(C(F)(F)F)c3)CC2)cc1 | 29.1 µM [falling, single point] |  |
| Cc1ccccc1NC(=O)Cn1c(=O)sc2ccccc21 | 35.5 µM [rising, single point] |  |
| N#C/C(=C\c1ccccc1O)C(=O)Nc1cccnc1 | 10 µM [falling, partial curve, poor fit] |  |
| CCOC(=O)c1ccc(NC(=O)Nc2cc(C)cc(C)n2)cc1 | 0.112 µM [falling, full curve, poor fit] |  |
| CCCc1nnc(NC(=O)CCC(=O)N2CCN(S(=O)(=O)c3ccc(C)cc3)CC2)s1 | 0.562 µM [rising, full curve, poor fit] |  |
| CCC(=O)OCc1c(C(F)(F)F)nn(C)c1Sc1ccc(Cl)cc1 | 0.708 µM [rising, full curve, poor fit] |  |
| CC(=O)COc1ccccc1OC(=O)c1ccco1 | 29.1 µM [rising, single point] |  |
| CC(NC(=O)CCl)c1ccccc1Br (stereo unspecified) | 3.16 µM [falling, partial curve, poor fit] |  |
| O=C(c1cccnc1)n1nc(-c2ccco2)nc1NCc1cccs1 | 35.5 µM [falling, single point] |  |

3 compounds from above, arranged by SMILES length, high to low.

| Compound | AC50 [1] | AC50 [2] |
| --- | --- | --- |
| CC1=NN(c2ccccc2)C(=O)/C1=C/c1c(O)n(-c2ccc(F)c(Cl)c2)[nH]c1=O | 16.4 µM [falling, single point] |  |
| CCn1c(SCC(=O)c2c[nH]c3ccccc23)nc2cc(S(=O)(=O)N3CCOCC3)ccc21 | 18.4 µM [falling, single point] |  |
| Cc1ccccc1NC(=O)Cn1c(=O)sc2ccccc21 | 35.5 µM [rising, single point] |  |
